Assay results published in the supplement of paper PMC10849652.
This is one part of the list.

The chains behind the UniProt entries cited, without tags or fusion partners. Where a name states a change or a piece, a line headed by the entry shows the natural chain unless it says otherwise.
UniProt Q9BQP7: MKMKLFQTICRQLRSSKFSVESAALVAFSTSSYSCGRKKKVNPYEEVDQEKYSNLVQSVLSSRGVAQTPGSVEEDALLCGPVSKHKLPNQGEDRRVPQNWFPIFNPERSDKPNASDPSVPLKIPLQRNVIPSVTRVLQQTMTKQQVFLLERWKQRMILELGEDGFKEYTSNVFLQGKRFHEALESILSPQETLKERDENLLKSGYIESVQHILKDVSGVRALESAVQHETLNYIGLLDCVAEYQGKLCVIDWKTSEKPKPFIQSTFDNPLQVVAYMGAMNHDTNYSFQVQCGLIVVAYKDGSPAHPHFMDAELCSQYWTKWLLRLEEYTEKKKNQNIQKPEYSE
UniProt Q567V2: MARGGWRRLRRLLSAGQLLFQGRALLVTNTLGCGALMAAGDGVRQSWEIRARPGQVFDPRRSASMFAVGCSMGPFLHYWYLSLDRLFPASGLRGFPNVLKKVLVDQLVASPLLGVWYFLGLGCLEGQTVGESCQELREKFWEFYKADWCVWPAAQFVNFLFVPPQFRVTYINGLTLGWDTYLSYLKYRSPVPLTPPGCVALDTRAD
UniProt Q99583: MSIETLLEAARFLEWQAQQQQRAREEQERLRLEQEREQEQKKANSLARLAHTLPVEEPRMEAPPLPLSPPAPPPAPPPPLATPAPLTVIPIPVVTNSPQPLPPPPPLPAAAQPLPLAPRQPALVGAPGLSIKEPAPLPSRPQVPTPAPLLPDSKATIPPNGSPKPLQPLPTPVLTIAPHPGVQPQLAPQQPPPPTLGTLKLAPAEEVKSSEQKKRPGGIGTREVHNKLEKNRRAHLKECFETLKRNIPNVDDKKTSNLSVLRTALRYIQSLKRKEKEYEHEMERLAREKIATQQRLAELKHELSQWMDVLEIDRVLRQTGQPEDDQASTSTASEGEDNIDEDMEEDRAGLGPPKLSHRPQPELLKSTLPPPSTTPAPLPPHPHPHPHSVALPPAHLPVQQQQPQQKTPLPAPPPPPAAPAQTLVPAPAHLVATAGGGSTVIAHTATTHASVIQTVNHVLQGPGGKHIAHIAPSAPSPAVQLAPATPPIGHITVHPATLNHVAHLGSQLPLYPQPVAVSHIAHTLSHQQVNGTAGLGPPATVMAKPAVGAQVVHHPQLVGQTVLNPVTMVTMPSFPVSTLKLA
UniProt Q03111: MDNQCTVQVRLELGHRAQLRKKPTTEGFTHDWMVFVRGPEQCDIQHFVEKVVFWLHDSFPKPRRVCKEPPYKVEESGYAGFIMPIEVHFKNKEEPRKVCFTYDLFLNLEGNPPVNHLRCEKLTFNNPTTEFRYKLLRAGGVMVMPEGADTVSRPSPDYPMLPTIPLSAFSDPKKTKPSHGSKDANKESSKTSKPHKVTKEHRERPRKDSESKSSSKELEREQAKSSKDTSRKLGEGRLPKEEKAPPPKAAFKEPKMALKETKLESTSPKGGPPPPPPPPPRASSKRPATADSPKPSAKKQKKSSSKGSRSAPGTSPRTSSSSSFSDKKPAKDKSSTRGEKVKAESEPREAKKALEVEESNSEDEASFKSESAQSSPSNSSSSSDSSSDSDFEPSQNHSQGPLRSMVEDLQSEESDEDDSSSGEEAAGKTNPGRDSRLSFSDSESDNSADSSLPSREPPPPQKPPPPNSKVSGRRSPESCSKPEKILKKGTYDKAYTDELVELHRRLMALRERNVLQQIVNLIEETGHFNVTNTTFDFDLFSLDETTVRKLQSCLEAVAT
UniProt Q7L1V2: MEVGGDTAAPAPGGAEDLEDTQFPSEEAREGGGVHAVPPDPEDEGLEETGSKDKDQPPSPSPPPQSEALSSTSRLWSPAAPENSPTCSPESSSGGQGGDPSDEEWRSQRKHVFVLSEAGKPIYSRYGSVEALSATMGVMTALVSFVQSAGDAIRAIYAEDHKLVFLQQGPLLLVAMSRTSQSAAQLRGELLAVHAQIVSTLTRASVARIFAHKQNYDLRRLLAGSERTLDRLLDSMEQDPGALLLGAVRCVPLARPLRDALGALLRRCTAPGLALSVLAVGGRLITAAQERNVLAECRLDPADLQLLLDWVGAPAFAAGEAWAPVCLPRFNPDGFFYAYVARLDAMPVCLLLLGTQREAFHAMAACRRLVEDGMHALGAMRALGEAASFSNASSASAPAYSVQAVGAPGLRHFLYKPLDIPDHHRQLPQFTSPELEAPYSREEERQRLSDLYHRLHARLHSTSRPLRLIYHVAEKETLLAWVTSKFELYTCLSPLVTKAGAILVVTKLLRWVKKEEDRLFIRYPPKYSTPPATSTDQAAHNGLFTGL
UniProt Q96EN8: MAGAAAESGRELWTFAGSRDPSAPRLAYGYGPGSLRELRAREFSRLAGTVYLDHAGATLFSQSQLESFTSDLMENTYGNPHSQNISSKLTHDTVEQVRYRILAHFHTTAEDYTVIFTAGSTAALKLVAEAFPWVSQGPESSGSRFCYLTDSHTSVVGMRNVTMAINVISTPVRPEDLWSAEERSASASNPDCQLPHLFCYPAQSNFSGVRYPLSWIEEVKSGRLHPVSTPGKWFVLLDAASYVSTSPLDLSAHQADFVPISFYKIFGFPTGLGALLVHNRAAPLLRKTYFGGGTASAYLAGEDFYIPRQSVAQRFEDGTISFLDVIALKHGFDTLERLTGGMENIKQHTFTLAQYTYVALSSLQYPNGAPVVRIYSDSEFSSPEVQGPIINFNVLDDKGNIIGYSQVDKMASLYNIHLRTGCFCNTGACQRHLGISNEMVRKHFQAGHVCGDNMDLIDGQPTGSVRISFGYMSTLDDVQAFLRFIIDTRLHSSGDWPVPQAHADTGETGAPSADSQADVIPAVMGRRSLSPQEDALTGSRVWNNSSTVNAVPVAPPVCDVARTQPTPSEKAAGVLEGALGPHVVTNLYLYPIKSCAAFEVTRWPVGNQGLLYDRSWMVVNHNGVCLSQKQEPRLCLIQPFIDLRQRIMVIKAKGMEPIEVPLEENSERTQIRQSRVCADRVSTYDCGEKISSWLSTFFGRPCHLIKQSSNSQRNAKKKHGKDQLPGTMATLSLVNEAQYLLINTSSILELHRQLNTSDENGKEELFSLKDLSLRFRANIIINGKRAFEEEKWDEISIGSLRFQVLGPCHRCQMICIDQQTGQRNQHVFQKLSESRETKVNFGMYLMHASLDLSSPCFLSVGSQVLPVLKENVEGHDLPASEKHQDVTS
UniProt O95396: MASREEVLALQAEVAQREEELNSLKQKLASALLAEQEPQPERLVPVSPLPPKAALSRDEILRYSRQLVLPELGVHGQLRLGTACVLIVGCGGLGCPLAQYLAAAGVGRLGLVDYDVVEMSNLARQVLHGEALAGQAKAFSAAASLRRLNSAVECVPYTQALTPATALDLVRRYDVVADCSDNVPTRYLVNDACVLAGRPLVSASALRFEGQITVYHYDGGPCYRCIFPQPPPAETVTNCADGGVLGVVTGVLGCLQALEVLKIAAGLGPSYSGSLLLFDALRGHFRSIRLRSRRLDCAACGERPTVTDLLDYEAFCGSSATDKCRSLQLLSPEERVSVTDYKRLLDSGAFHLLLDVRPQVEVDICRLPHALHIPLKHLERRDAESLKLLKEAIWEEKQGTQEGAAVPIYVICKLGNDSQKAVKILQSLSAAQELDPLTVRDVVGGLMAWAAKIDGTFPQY
UniProt P34949: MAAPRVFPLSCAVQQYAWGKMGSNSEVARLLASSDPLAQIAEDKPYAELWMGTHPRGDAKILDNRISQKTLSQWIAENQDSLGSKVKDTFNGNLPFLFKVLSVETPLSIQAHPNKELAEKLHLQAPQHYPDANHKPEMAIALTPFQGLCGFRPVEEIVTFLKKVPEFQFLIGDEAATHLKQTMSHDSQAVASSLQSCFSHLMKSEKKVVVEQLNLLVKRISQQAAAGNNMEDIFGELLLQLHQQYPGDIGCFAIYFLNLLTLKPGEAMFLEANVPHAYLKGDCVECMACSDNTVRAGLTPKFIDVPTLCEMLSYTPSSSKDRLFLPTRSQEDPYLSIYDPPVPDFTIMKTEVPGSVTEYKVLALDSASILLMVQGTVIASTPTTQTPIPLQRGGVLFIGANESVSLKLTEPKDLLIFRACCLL
UniProt Q5JRA6: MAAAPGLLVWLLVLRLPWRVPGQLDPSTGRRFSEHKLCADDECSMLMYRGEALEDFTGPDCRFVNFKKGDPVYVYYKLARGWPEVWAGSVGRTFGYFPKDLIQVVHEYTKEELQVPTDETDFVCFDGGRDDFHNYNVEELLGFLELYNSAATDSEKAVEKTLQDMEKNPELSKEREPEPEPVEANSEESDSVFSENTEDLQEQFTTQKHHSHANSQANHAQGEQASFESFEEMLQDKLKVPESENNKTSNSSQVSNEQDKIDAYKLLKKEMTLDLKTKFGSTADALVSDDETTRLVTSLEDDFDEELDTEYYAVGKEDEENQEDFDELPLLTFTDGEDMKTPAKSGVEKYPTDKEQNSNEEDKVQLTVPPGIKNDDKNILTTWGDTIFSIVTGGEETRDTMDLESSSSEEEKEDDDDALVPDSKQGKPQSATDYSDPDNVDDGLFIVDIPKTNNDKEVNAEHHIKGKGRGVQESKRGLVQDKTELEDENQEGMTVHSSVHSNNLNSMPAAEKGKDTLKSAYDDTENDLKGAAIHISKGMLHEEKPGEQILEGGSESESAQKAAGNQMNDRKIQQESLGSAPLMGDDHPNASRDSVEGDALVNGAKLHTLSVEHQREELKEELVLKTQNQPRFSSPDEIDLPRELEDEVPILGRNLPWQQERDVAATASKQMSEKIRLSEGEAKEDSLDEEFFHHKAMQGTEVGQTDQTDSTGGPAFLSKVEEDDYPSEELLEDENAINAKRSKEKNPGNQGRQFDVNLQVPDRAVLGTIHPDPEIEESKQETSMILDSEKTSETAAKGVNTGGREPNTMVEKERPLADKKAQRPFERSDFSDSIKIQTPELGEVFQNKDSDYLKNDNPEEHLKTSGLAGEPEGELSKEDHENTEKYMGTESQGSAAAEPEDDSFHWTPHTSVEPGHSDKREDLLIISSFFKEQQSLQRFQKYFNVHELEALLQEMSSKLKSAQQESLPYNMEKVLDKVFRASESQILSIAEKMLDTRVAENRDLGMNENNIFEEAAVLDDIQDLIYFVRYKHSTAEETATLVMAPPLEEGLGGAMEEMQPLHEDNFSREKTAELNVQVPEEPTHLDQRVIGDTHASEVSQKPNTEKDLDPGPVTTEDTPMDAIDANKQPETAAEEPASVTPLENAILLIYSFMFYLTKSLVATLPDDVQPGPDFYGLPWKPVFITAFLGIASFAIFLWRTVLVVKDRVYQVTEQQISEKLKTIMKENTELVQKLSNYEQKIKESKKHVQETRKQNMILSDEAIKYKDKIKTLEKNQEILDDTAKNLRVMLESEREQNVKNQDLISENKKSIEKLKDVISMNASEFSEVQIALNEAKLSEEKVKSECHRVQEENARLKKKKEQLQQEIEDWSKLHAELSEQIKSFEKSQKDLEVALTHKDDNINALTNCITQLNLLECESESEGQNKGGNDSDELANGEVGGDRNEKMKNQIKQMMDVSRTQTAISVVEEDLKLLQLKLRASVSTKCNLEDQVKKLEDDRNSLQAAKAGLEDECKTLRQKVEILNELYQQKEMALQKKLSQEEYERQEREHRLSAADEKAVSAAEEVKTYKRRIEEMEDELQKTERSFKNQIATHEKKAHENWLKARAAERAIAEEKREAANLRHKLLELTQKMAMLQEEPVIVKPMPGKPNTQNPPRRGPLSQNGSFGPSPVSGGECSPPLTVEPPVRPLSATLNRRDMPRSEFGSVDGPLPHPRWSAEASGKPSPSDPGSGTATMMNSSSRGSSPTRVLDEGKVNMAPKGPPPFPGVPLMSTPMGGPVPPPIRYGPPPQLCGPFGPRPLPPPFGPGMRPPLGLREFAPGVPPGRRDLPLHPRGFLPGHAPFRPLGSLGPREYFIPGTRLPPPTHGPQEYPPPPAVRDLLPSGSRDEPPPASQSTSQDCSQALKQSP
UniProt O00566: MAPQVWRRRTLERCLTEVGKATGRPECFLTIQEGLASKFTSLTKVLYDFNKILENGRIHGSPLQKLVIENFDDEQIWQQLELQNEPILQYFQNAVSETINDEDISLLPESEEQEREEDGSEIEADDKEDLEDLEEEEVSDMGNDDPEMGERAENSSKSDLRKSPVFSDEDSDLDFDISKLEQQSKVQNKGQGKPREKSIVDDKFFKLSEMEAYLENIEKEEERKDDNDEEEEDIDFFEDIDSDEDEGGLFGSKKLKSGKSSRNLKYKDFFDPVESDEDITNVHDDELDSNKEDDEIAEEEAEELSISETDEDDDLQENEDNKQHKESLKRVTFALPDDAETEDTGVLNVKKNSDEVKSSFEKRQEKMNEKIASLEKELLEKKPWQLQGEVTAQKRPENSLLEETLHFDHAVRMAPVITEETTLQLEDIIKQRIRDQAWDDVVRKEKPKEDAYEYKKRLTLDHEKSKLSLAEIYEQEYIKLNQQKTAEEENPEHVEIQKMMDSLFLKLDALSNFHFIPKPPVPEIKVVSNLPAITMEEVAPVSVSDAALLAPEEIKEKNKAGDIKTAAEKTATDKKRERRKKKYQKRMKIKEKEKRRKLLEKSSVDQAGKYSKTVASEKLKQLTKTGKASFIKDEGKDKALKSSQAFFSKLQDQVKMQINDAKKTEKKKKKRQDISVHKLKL

Legend:
Assay in all cases: log2 fold change, soluble protein after heating vs DMSO (PISA); higher = thermal stabilisation; K562 lysate, 10 uM; active = over 0.2 and 3.5 SD of the protein, either way, in both replicates (recomputed)
[1] = compound: NCC(=O)Nc1ccc(-n2nc(C(F)(F)F)cc2-c2ccc3c(ccc4ccccc43)c2)cc1
Summary of the method: (§1)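 The values are log-two fold changes in thermal stability compared with solvent controls and come from duplicates. They were obtained by TMTpro 16plex LC-MS/MS, with channel sums equalised, on the supernatant after 21,000xg for 90 min. That supernatant came from crude K562 extract at 1 mg/mL protein treated with 10 μM compound for 30 min, heated for 3 min across 48°C-58°C, pooled and brought to 0.5% NP-40 at 4°C.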

[2] = compound: O=C(CCCCCCC(=O)Nc1ccccc1)NO [vorinostat]
Summary of the method: as §1

[3] = compound: O=C(O)c1ccc2c(c1)nc(Nc1cccc(Cl)c1)c1ccncc12 [silmitasertib]
Summary of the method: as §1

[4] = compound: O=C1NC(=O)C(c2cnc3ccccn23)=C1c1cn2c3c(cc(F)cc13)CN(C(=O)N1CCCCC1)CC2
Summary of the method: as §1

[5] = compound: c1cn2cc(-c3ccc4cn[nH]c4c3)nc(Nc3ccc(N4CCOCC4)cc3)c2n1 [entospletinib]
Summary of the method: as §1

| Target | log2 fold change [1] | log2 fold change [2] | log2 fold change [3] | log2 fold change [4] | log2 fold change [5] |
| --- | --- | --- | --- | --- | --- |
| MOCS2 (UniProt O96007) | inactive: -0.044 | inactive: 0.082 | inactive: -0.065 | inactive: 0.007 | inactive: 0.01 |
| MRPL17 (UniProt Q9NRX2) | inactive: -0.005 | inactive: -0.113 | inactive: 0.079 | inactive: -0.027 | inactive: 0.007 |
| MGME1 (UniProt Q9BQP7) | inactive: -0.015 | inactive: 0.162 | inactive: -0.015 | inactive: -0.01 | inactive: -0.018 |
| MRPL23 (UniProt Q16540) | inactive: -0.036 | inactive: 0.041 | inactive: 0.017 | inactive: 0.06 | inactive: -0.045 |
| MMADHC (UniProt Q9H3L0) | inactive: -0.041 | inactive: -0.178 | inactive: -0.028 | inactive: 0.046 | inactive: -0.011 |
| MPV17L2 (UniProt Q567V2) | inactive: 0.028 | inactive: -0.109 | inactive: -0.044 | inactive: -0.104 | inactive: -0.032 |
| MGST2 (UniProt Q99735) | inactive: 0.034 | inactive: 0.117 | inactive: 0.083 | inactive: 0.003 | inactive: -0.05 |
| MNT (UniProt Q99583) | inactive: 0.053 | inactive: -0.039 | inactive: -0.105 | inactive: 0.066 | inactive: -0.015 |
| MLLT1 (UniProt Q03111) | inactive: 0.043 | inactive: 0.037 | inactive: -0.091 | inactive: 0.015 | inactive: 0.022 |
| MMS22L (UniProt Q6ZRQ5) | inactive: 0.022 | active: -0.508 | inactive: 0.016 | inactive: 0.138 | inactive: 0.069 |
| MPHOSPH8 (UniProt Q99549) | inactive: -0.025 | inactive: -0.294 | inactive: -0.025 | inactive: 0.044 | inactive: 0.067 |
| MON1A (UniProt Q86VX9) | inactive: 0.074 | inactive: -0.138 | inactive: 0.05 | inactive: 0.022 | inactive: 0.053 |
| MRPL21 (UniProt Q7Z2W9) | inactive: 0.067 | inactive: 0.005 | inactive: -0.023 | inactive: 0.002 | inactive: 0.022 |
| MPZL1 (UniProt O95297) | inactive: -0.059 | inactive: 0.022 | inactive: -0.004 | inactive: 0.021 | inactive: 0.017 |
| MON1B (UniProt Q7L1V2) | inactive: 0.013 | inactive: -0.103 | inactive: 0.06 | inactive: 0.006 | inactive: 0.047 |
| MRPL10 isoform 2 (UniProt Q7Z7H8) | inactive: 0.005 | inactive: 0.035 | inactive: -0.027 | inactive: -0.027 | inactive: -0.027 |
| MOCOS (UniProt Q96EN8) | inactive: 0.016 | inactive: -0.082 | inactive: -0.003 | inactive: -0.037 | inactive: 0.019 |
| MIER3 isoform 2 (UniProt Q7Z3K6) | inactive: -0.044 | inactive: -0.226 | inactive: 0.01 | inactive: -0.022 | inactive: -0.017 |
| MOCS3 (UniProt O95396) | inactive: 0.062 | active: -0.458 | inactive: -0.012 | inactive: 0.053 | inactive: 0.035 |
| MON2 isoform 5 (UniProt Q7Z3U7) | inactive: 0.021 | active: -0.525 | inactive: 0.021 | inactive: 0 | inactive: 0.005 |
| MPDU1 (UniProt O75352) | inactive: -0.043 | inactive: 0 | inactive: -0.04 | inactive: 0.057 | inactive: 0.027 |
| MIOS (UniProt Q9NXC5) | inactive: -0.013 | inactive: -0.018 | inactive: 0.012 | inactive: -0.009 | inactive: -0.011 |
| MPI (UniProt P34949) | inactive: 0.013 | inactive: 0.049 | inactive: -0.047 | inactive: -0.007 | inactive: -0.017 |
| MRPL1 (UniProt Q9BYD6) | inactive: 0.038 | inactive: -0.107 | inactive: 0.038 | inactive: -0.001 | inactive: 0.005 |
| MIA3 (UniProt Q5JRA6) | inactive: 0.008 | inactive: -0.176 | inactive: -0.021 | inactive: -0.023 | inactive: -0.032 |
| MPHOSPH10 (UniProt O00566) | inactive: -0.004 | inactive: 0.174 | inactive: -0.126 | inactive: 0.036 | inactive: -0.009 |

Looked up above.
MON1B (UniProt Q7L1V2) | log2 fold change [5]: inactive: 0.047
MIOS (UniProt Q9NXC5) | log2 fold change [1]: inactive: -0.013
